# Reference: PubChem BioAssay AID1347426 (Functional Genomics Laboratory (NCATS/FGL), 2020)
# Out of some 31,000 sequences screened, about 1,400 (4.5%) were called active.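 How the source made its calls: active means median seed-adjusted z-score above 1 or below -1; inactive means the rest.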 The list shows a part of the results.
# Test: Novel Modifiers of Survival Motor Neuron (SMN) Protein: Gene Identification via Genome-wide siRNA Screen;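 further: luminescence tracks full-length SMN protein made from the SMN2 reporter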
# Conditions: HEK293T SMN2-luciferase reporter, siRNA knockdown, 72 h; actives lie on both sides
# In short: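 siRNA screen, 10418 genes ×3 siRNAs; 1 pmol/well, lipid reverse transfection into HEK293T SMN2-luc reporter line. 72 h, 37 °C, 5% CO2; ONE-Glo readout. Data: neg-ctrl normalized, log10, MAD; hit = MAD >1.0 or < -1.0.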
row,Sequence,median seed-adjusted z-score
1,ACAUGUAUGCUGUAAAUCUTT against CSAD,inactive: -0.0681
2,GAGUCGUUGUCCAUCUUAATT against SR140,active: 1.16
3,GAAACCAUACAAACCUAAATT against ZNF273,inactive: 0.0489
4,AAACCAUCAUGCUGAGGUGTT against FCGR2A,inactive: -0.19
5,CACUGUGACUGCAUUGAAATT against TGIF1,inactive: 0.303
6,GGCUUUGUCAGUUCCCAGATT against SPRR2B,inactive: 0.388
7,GCCUGAAGUUUUUAAGGAATT against SPOP,inactive: 0.000304
8,CAAUGUGGAGUGUCAGAAATT against SMYD2,inactive: -0.393
9,CAAUAGACAUUUUAGUCUATT against POT1,inactive: 0.459
10,GGUGUGCCGAUGCAACAGATT against LHX4,inactive: 0.0795
11,GUCUUUAAUCGGAAGCGAATT against ZNF813,inactive: 0.127
12,CAAGCAGGAUGACAAGUUUTT against SLC22A14,inactive: 0.215
13,GAUUCGUGAGAAUGACUUUTT against ERCC2,inactive: -0.0551
14,GGGAACAAAUGUGAUCUGATT against RAB1A,inactive: 0.395
15,GUACUUCCGGGACCAUAUATT against IQGAP1,inactive: -0.615
16,GCAAGAACCCAAGCCCACATT against NME4,inactive: -0.155
17,CACUUUUUGUAAUACUUUUTT against MYOD1,inactive: 0.309
18,GACCGGACCUUUUACCAAUTT against KIF1A,inactive: 0.318
19,GGUAUCACCUAUACAGAAATT against FKBP11,inactive: -0.085
20,GCAAAUCGAGUGAUCGGAATT against UEVLD,inactive: -0.0682
21,GGUCUUAACUUUAUACUUATT against LEFTY2,inactive: -0.33
22,GCUAAUCAGGAGCAACAGATT against NFAT5,inactive: 0.106
23,GAAUCAUGUUAAGAAGAUATT against ZNF654,inactive: 0.199

row,Sequence,median seed-adjusted z-score
1,GCCGAGACCUUUUAGUUCATT against HNRNPUL2,inactive: -0.0273
2,GUGCAGCCCUCUUACGCAATT against EGLN3,inactive: -0.0575
3,ACAAAAGACAAGUUGAAGATT against TMPO,inactive: -0.0406
4,GAUAAACGGGUGGAAGUUATT against CPEB4,inactive: -0.53
5,AGAAGAUCCGAAAGAAAUATT against GABARAP,inactive: 0.418
6,CACCGUCUAUUGUCAUUCATT against ADIPOR1,inactive: 0
7,GCACCAUAGUGACACUGAATT against IFNAR2,inactive: -0.219
8,GUGUUUCACCUGUCUCGGATT against SLC9A5,inactive: -0.545
9,CAAUAGAUCCUCUAAAGGATT against F2RL1,inactive: 0.138
10,CACUGUACAUUAUAGAACUTT against ZNF12,inactive: -0.144
11,GGCCUAAAAUUGAUGCAGUTT against MMP12,inactive: 0.0476
12,CUGCGGCUCUUUGACAUUATT against POP4,inactive: -0.144
13,CGCUGAUUUUCGAGUGUAATT against EHMT2,inactive: 0.295
14,GGAGGACUGCCUACCUGUATT against OPTC,inactive: 0.0953
15,CCAAAUGACCUGUACCCUATT against YBX2,inactive: 0.362
16,GUGCUGCUCUGCAUACAAATT against CHI3L1,inactive: 0.145
17,CACUGAACCCUGACAAUGATT against ARSH,inactive: -0.0414
18,CGGCAUGCUUUGAUCCUCATT against CMKLR1,inactive: -0.704
19,ACCAGUCCGUGAUCAAGAATT against TFAP2E,inactive: 0.243
20,AGAAGAUUCUUGUAUUUAUTT against IL24,inactive: -0.125
21,GCUAGAUAAUGUCAAACAATT against TIMM44,inactive: -0.569
22,GCAUGUACGACCAAUGUAATT against NR3C1,inactive: -0.47
23,GCUACAGAGACAAUGCUUATT against PCMTD1,inactive: 0.0312

# Some of the entries so far, with tabs:
row	Sequence	median seed-adjusted z-score
4	AAACCAUCAUGCUGAGGUGTT against FCGR2A	inactive: -0.19
1	GCCGAGACCUUUUAGUUCATT against HNRNPUL2	inactive: -0.0273
4	GAUAAACGGGUGGAAGUUATT against CPEB4	inactive: -0.53
15	CCAAAUGACCUGUACCCUATT against YBX2	inactive: 0.362

# Remaining list, next part:

row,Sequence,median seed-adjusted z-score
1,GCAACAUCCUCAUUGUAUUTT against MCHR2,inactive: -0.658
2,GACCGAGAGUUGGUGGUUATT against ESRRG,inactive: -0.681
3,GCUACAUCAUGGGCCGAUUTT against FOXS1,inactive: 0
4,AAACAAUGGUUUGUGCAAATT against UCRC,inactive: -0.93
5,GAUCCAUGAUGACAUAGAATT against TFDP2,inactive: 0.85
6,GCUUGAUGCUAAACCCUCATT against PCGF1,inactive: 0.508
7,GAAUGAUCCUGGGUAACAATT against RAB8B,inactive: -0.259
8,GCCUAUAACUUGAGGGUUATT against DCHS1,inactive: 0.565
9,GGUAAAGUUUUACAGCAUUTT against MTCH2,inactive: -0.168
10,GGAGUUUAAAGUUCAGGAATT against RAD1,inactive: -0.71
11,AGUGUUCCCGAUUUACUAATT against OLIG1,inactive: -0.387
12,AGAAUUUGCUGGACCAUUUTT against NPPA,inactive: -0.897
13,CAAUCUCUAGUCUAAAAGATT against PDLIM5,inactive: 0.439
14,CGCAACUCUUUACACCGUATT against SAMHD1,active: -1.33
15,GGAAUGCUAAGUUCCGAGATT against ARFGAP1,inactive: 0.123
16,GAUCGUAUUCUGUAAGUGATT against BAI3,inactive: 0.0657
17,GGAUGAACCUGAACCACGATT against ADAD1,inactive: -0.0795
18,GCGGAAAAGCUGUAUCUAUTT against POLR3E,inactive: -0.55
19,GGAAACUUCUUCUACCUGATT against RSU1,inactive: 0.176
20,AACCAUCCAUUGGAUCAAATT against RAE1,inactive: 0.929
21,GGUGUAACCGAUUCACUAUTT against GCN1L1,inactive: 0.0513
22,GGUAUGGAUUGAUGCCGCATT against SLC6A2,inactive: 0
